A short description of the series: Organic solar cell performance with the fullerene as electron acceptor in the active layer, ITO/PEDOT/Active layer/LiF/Al. To be noted: area 0.16 cm^2.

Under “Donor PCDTBT”, `CCCC[Si](C)(C)OC12c3c4c5c6c7c8c(c9c%10c1c1c%11c3c3c%12c4c4c6c6c7c7c%13c8c9c8c9c%10c1c1c%10c%11c3c3c%11c%12c4c4c6c6c7c7c%13c8c8c9c1c1c%10c3c3c%11c4c6c4c7c8c1c34)C52OC(=O)c1c(C)cccc1C` (stereo not shown) [Formula 1c] displayed an FF of 38.2%, a Jsc of 8.97 mA/cm^2, a PCE of 2.6% and a Voc of 0.76 V.
Where the note is “Donor P3HT”, `Cc1cccc(C)c1C(=O)OC12c3c4c5c6c7c8c(c9c%10c1c1c%11c3c3c%12c4c4c6c6c7c7c%13c8c9c8c9c%10c1c1c%10c%11c3c3c%11c%12c4c4c6c6c7c7c%13c8c8c9c1c1c%10c3c3c%11c4c6c4c7c8c1c34)C52O[Si](C)(C)c1ccccc1` (stereo not shown) [Formula 1a] gave an FF of 30.4%, a Jsc of 5.62 mA/cm^2, a PCE of 0.8% and a Voc of 0.46 V. For the same molecule, where the note is “Donor PCDTBT”, the FF is 42.7%, the Jsc was 9.22 mA/cm^2, the PCE turned out to be 3.3% and the Voc came to 0.84 V. For the setting “Donor PTB7”, this molecule came in with an FF of 34.7%, a Jsc of 11.7 mA/cm^2, a PCE of 2.4% and a Voc of 0.59 V.

(Values after patent publication US20160039676A1, “Fullerene Derivatives and Their Applications in Organic Photovoltaics” (Nano and Advanced Materials Institute Limited, priority 2014, published 2016).)
